Reference: PubChem BioAssay AID623995 (National Center for Advancing Translational Sciences (NCATS), 2012)
Inconclusive means that the source gave no clear call. Such entries were picked first, then a sample of the others. A potency beside an inconclusive call is a rough fit, not a confirmed value. Calls of active or inactive are those of the source. The call rests on the fitted dose curve; in most records, active means well fitted inhibition curve with a large enough effect; inconclusive means small, poorly fitted or top-dose-only effect; inactive means no such curve, though single readings can be large or run the other way.

By UniProt entry, the sequences of proteins in these tests, tags left out.
UniProt O75874, whole entry, looked up: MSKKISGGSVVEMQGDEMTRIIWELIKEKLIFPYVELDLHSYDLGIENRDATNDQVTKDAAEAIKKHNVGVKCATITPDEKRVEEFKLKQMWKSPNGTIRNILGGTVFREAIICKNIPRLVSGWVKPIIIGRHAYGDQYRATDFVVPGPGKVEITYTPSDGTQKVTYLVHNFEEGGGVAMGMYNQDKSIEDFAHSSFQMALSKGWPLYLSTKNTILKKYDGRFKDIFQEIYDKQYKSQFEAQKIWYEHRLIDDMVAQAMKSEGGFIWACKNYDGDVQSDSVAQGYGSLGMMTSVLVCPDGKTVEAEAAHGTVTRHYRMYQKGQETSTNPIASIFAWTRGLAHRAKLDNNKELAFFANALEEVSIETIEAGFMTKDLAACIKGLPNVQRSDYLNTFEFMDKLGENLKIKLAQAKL

These compounds were tested against Isocitrate dehydrogenase [NADP] cytoplasmic (Homo sapiens) (UniProt O75874) (assay: qHTS for Inhibitors of mutant isocitrate dehydrogenase 1 (IDH1): Cherrypicks in WT IDH1). Conditions: WT IDH1 enzyme, NADPH diaphorase/resazurin fluorescence; series mostly up to 115 µM; activity change, negative = inhibition: at the top concentration.
Method in brief: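 WT IDH1 at 0.65 nM in 20 mM Tris pH 7.5 with MgCl2, NaCl, BSA, b-ME; 0.06 mM NADP+ and 0.08 mM isocitrate. NADPH coupled to diaphorase/resazurin; resorufin fluorescence read kinetically for 10 min. Compounds titrated 115 uM to 0.20 uM.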
Further: nearly all actives have a fitted effect of over 55% in size.
Potency means the concentration at half of the fitted maximal effect.
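Wherever activity change, negative = inhibition is given: 0% = full WT IDH1 enzyme control and full inhibition = no enzyme wells.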

Potency, active:
CC(/C=C1\SC(=S)N(c2ccc(C(=O)O)cc2)C1=O)=C\c1ccccc1 44.7 µM
COc1cccc(-c2coc3c(C)c4oc(=O)c(CCC(=O)O)c(C)c4cc23)c1 35.5 µM
CC(=O)N1CCc2c(sc3c2c(=O)n(-c2ccc(C)cc2)c(=O)n3Cc2c(F)cccc2Cl)C1 35.5 µM
COc1c(CC=C(C)C)cc(C2CC(=O)c3c(O)cc(O)cc3O2)cc1CC=C(C)C (stereo not given) 39.8 µM
CCOc1ccc2c(c1)C(NC(C)=O)C(=O)N2CCN1CCOCC1 (stereo not given) 79.4 µM
CSC1=NC(=O)/C(=C/c2ccc(SC)cc2)S1 70.8 µM
Cc1nn(CCc2nn[nH]n2)c2nc(-c3ccc(C4CCCCC4)cc3)cc(C(F)(F)F)c12 50.1 µM
C=CCOc1ccc(Br)cc1/C=C1/SC(=Nc2ccc(C(=O)O)cc2)NC1=O 70.8 µM
Cc1oc2c(C)c3oc(=O)c(CCC(=O)O)c(C)c3cc2c1-c1ccccc1 50.1 µM
CCOc1ccc(-n2c(=S)sc3c(=O)[nH]c(SCC(=O)NC(C)CC)nc32)cc1 (stereo not given) 8.91 µM

Ordered by count of non-hydrogen atoms (falling): part of the list above
Potency, active:
Cc1nn(CCc2nn[nH]n2)c2nc(-c3ccc(C4CCCCC4)cc3)cc(C(F)(F)F)c12 50.1 µM
C=CCOc1ccc(Br)cc1/C=C1/SC(=Nc2ccc(C(=O)O)cc2)NC1=O 70.8 µM
CC(/C=C1\SC(=S)N(c2ccc(C(=O)O)cc2)C1=O)=C\c1ccccc1 44.7 µM

Following part.

Potency, inconclusive:
CC1=NOC(=O)/C1=C\c1ccc(-c2ccc(Br)cc2)o1 89.1 µM [inhibitor, single point]
COc1ccc(Cl)cc1-n1c(=S)sc2c(=O)n(-c3ccc(F)cc3)c(SCC(=O)O)nc21 39.8 µM [inhibitor, single point]
CCOC(=O)c1cc(-c2ccncc2)nc2c1c(C)nn2-c1ccccn1 44.7 µM [inhibitor, partial curve]
Cc1cc(C(C)(C)C)oc1C(=O)N1CCN(C(=O)c2oc(C(C)(C)C)cc2C)CC1 79.4 µM [inhibitor, single point]
Cc1cc(C#N)c(C)c(SCc2[nH]nc3c2C(c2ccccc2)C(C#N)=C(N)O3)n1 (stereo not given) 35.5 µM [inhibitor, partial curve, poor fit]
Cc1ccc(Sc2ccc(NC(=O)CCl)cc2)c(C)c1 89.1 µM [inhibitor, single point]
O=c1cc(CN2CCc3ccccc32)nc2sccn12 79.4 µM [inhibitor, single point]
COc1cc2c(O)c3c(c(-c4ccc5c(c4)OCO5)c2cc1OC)C(=O)OC3 39.8 µM [inhibitor, full curve]
CN(C(=O)CSc1nc(-c2ccc(C(C)(C)C)cc2)c(C#N)c(=O)[nH]1)C1CCCCC1 89.1 µM [inhibitor, single point]
O=C(CCl)c1ccc(Cc2ncc(C(F)(F)F)cc2Cl)s1 44.7 µM [inhibitor, partial curve]
O=C(CSc1nc2nc(-c3cccs3)cc(C(F)(F)F)c2c(=O)[nH]1)Nc1ccc(F)c(F)c1 89.1 µM [inhibitor, single point]
COc1ccc(-n2c(=O)c3c4c(sc3n(Cc3cc(C)ccc3C)c2=O)CN(C(C)=O)CC4)c(OC)c1 39.8 µM [inhibitor, partial curve]
O=C1CN(c2nc(-c3cccs3)nc3sc4c(c23)CCCC4)CCN1 39.8 µM [inhibitor, partial curve, poor fit]
CCCOc1ccc(C2c3c(-c4ccccc4O)n[nH]c3C(=O)N2Cc2ccncc2)cc1OCC (stereo not given) 39.8 µM [inhibitor, full curve]
N#CC(=C1C=C(Br)C(=NO)C=C1Cl)c1ccc(Cl)cc1 70.8 µM [inhibitor, partial curve, poor fit]
COc1ccc(C2c3c(-c4ccccc4)n[nH]c3C(=O)N2c2ccc(C(=O)O)cc2)c(OC)c1 (stereo not given) 89.1 µM [inhibitor, single point]
CC(C)CNc1nnnc2c1sc1nc(N3CCOCC3)c3c(c12)CC(C)(C)SC3 31.6 µM [inhibitor, partial curve, poor fit]

Activity change, negative = inhibition, inactive:
CCOC(=O)c1ccc(N2C(=O)c3n[nH]c(-c4ccco4)c3C2c2ccc(OC)cc2OC)cc1 (stereo not given) -0.57%
Cc1nc(C)c(C(=O)N(c2ccc(C)c(C)c2)C(C(=O)NCc2ccco2)c2ccccc2)s1 (stereo not given) -5.09%
O=C(Oc1ccc2c(c1)O/C(=C\c1ccncc1)C2=O)c1ccccc1 1.11%
C=CCn1c(SCc2nc3sc(C(=O)O)c(C)c3c(=O)[nH]2)nnc1-c1ccc(C(C)(C)C)cc1 2.47%
N#C/C(=C\c1ccccc1OCc1ccc(C(=O)O)cc1)C(=O)Nc1ccc(O)cc1 -25.6%
Cc1ccc(-c2nn3c(-c4ccccc4C)nnc3c3ccccc23)cc1 -1.81%
NS(=O)(=O)c1ccc(N2N=C(c3ccc(Br)cc3)CC2c2ccc(F)cc2)cc1 (stereo not given) 1.97%
COc1ccc(C2C(C#N)=C(SCC(=O)Nc3ccc(C)cc3)NC3=C2C(=O)CC(C)(C)C3)cc1 (stereo not given) 8.15%
